# Experimental data published in PubChem BioAssay AID493014 (National Center for Advancing Translational Sciences (NCATS), 2011).
# The campaign covered roughly 340,000 compounds. About 170 (0.05%) were called active. The shares of active, inactive and inconclusive entries below differ from those in the screen. The call rests on the fitted dose curve; in most records, active means well fitted inhibition curve with a large enough effect in the signal ratio, with a control signal flat (not every such curve was filed as active); inconclusive means small, poorly fitted or top-dose-only effect, or effect the other way, or a change in a side signal; inactive means flat fitted curve, though single readings scatter; the % refers to the signal ratio. Potencies beside an inconclusive call are fits to weak or partial responses and may not hold up.
# Assay: qHTS Assay to Find Inhibitors of Chronic Active B-Cell Receptor Signaling;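 on activity change, negative = inhibition: plate controls were basal doxycycline-induced cells for no effect and cells given 10 µM MG132 for full effect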
# Conditions: ABC-DLBCL IkBa-CBG/CBR reporter, luminescence ratio (green luciferase fused to IkBa over red control in TMD8 lymphoma cells), 4 h; activity change, negative = inhibition: at 46.1 µM (top of the series)
# Outline: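 Compounds up to 46 uM were incubated four hours with TMD8 cells whose green CBG68 luciferase is fused to IkappaBalpha; red CBR luminescence normalised the signal, and concentration-effect curves were fitted to fusion, red and ratio data.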
# Potency means the concentration at half of the fitted maximal effect.
Structure (SMILES),Potency,"activity change, negative = inhibition"
Cc1ccc(CCNC(=O)C2CCC(=O)N2C2CCCC2)cc1 (stereo not given),"inconclusive: 5.17 µM [rising, partial curve, poor fit]",
Cn1c(CO)cnc1SCC(=O)c1ccc(Br)cc1,,inactive: -0.0476%
CN(C)/C=N/C(=S)Nc1ccccc1F,"inconclusive: 0.891 µM [falling, full curve]",
O=C(NCc1cccs1)C1CCC(CNS(=O)(=O)c2ccc(Br)s2)CC1 (stereo not given),,inconclusive: 15.6%
c1ccc(-c2ccccc2-c2nc(-c3ccncc3)no2)cc1,,inconclusive: -1.89%
COc1cc(OC)cc(-c2nc3nc(C)c(CCC(=O)O)c(C)n3n2)c1,"inconclusive: 14.6 µM [falling, partial curve]",
O=c1c2ccccc2nc(SCCN2CCCCC2)n1CCc1ccccc1,,inconclusive: -22.2%
Clc1cccc(C2Nc3cccc4cccc(c34)N2)c1Cl,"inconclusive: 11.2 µM [falling, partial curve, poor fit]",
COc1ccccc1NC(=O)N1CCOCC1,,inconclusive: -17.9%
COc1ccc(CN(Cc2cc3ccc(C)cc3[nH]c2=O)Cc2nnnn2C2CCCC2)cc1,,inactive: -0.369%
Cc1nc2c3cc(F)ccc3n(Cc3ccccc3)c2s1,,inconclusive: -7.27%
Cc1nc(-c2nc(-c3c(C(=O)NNC(=O)Nc4cccc(Cl)c4)noc3C)cs2)cs1,,inactive: -13.9%
CCCCCC(=O)N/N=C(\C)c1ccccn1,,inconclusive: -0.648%
COc1ccc(N2CCN(CCNC(=O)c3ccc4nc5ccccc5c(=O)n4c3)CC2)cc1,,inactive: 8.93%
O=C(NN1C(=O)c2ccccc2NC1c1ccccc1OCc1ccccc1)c1ccncc1 (stereo not given),,inconclusive: 0.0698%
N#CCSc1nnc(CNc2cccc(Cl)c2)o1,,inactive: 0.0155%
C[C@H](C[C@H](O)[C@H]1OC1(C)C)C1=C2C[C@H](O)C3[C@@]4(C)CCC(=O)C(C)(C)C4CC[C@]3(C)[C@@]2(C)CC1 (stereo not given in full),,inactive: -1.16%
COc1cc(C(=O)NCCc2ccc3c(c2)OCCO3)ccc1OCC(=O)N1CCOCC1,"inconclusive: 12.6 µM [falling, single point]",
CC(=O)N1CCc2c(sc(NC(=O)c3ccc4c(c3)OCCO4)c2C#N)C1,,inconclusive: -14.5%
O=C(NCCO)c1ccccc1O,,inactive: 3.6%
CC(=O)N/C(=C\c1ccccc1)C(=O)OCC(=O)Nc1cc(S(=O)(=O)N(C)C)ccc1Cl,,inconclusive: -5.76%
COc1cc2nc(CN3CCN(S(=O)(=O)c4ccccc4C(F)(F)F)CC3)[nH]c(=O)c2cc1OC,,inconclusive: -15.5%
Cc1ccc(NC(=O)C2CCN(C(=O)c3ccco3)CC2)cc1,,inactive: 0.812%
O=C(Cc1ccccc1)NC(=S)Nc1ccc2oc(-c3ccccc3F)nc2c1,,inconclusive: 9.72%
CCOC(=O)C1=NNC(C(=O)c2ccc(C)cc2)C1c1ccc(OC)cc1 (stereo not given),,inconclusive: 9.24%

# Some values from the list.
# Entry for Cc1nc2c3cc(F)ccc3n(Cc3ccccc3)c2s1 under activity change, negative = inhibition: inconclusive: -7.27%
# Entry for c1ccc(-c2ccccc2-c2nc(-c3ccncc3)no2)cc1 under activity change, negative = inhibition: inconclusive: -1.89%

# Additional records follow:

Structure (SMILES),Potency,"activity change, negative = inhibition"
C/C(Cl)=C/Cn1c(NCCN(C)C)nc2c1c(=O)n(C)c(=O)n2C,,inactive: 9.06%
CCC1CCCCN1CCCNC(=O)CC1Oc2ccccc2NC1=O (stereo not given),"inconclusive: 29.1 µM [rising, single point]",
Cc1cc(Nc2ccc(C)c(C)c2)c2ccccc2n1,,inactive: -10.2%
O=C(O)COc1ccccc1/C=N/NC(=O)CSc1nnc(-c2ccc(Cl)cc2)n1C1CCCCC1,"inconclusive: 11.2 µM [falling, partial curve]",
O=C(N/N=C/c1ccc([N+](=O)[O-])o1)c1cc2c(ccc3ccccc32)o1,"inconclusive: 11.2 µM [falling, partial curve]",
CCCCOc1ccc(OC(=O)c2sc3ncn(Cc4cccc(F)c4)c(=O)c3c2C)cc1,,inconclusive: 17.7%
N#Cc1ccccc1Oc1ccc(S(=O)(=O)N2CCCCC2)cn1,"inconclusive: 18.4 µM [falling, partial curve, poor fit]",
Cc1ccc(C)c(-c2nnc(NC(=O)c3ccc([N+](=O)[O-])o3)o2)c1,"inconclusive: 10.3 µM [falling, partial curve, poor fit]",
Cc1nnc2sc(SCc3ccccc3)nn2c1=O,,inconclusive: -7.38%
COc1ccccc1NC(=S)NNC(=S)Nc1ccc(OC(F)F)cc1,"inconclusive: 20.6 µM [falling, partial curve]",
O=C1CC(N2CCN(c3cccc(C(F)(F)F)c3)CC2)C(=O)N1c1ccc(F)cc1 (stereo not given),"inconclusive: 0.708 µM [falling, partial curve, poor fit]",
COc1cccc(C2CC(c3ccccc3)Nc3ncnn32)c1 (stereo not given),,inactive: -0.712%
CCCn1nnnc1NC(=O)c1ccc(C)cc1Cl,,inactive: 3.23%
COc1cc(O)c(C(CCN2CCN(c3ccccc3)CC2)c2ccc3c(c2)OCO3)c(OC)c1 (stereo not given),,inactive: -1.86%
CCCCCNC(=O)c1c[nH]c2ccc(S(=O)(=O)N3CCC(C)CC3)cc2c1=O,,inconclusive: 15.8%
Cc1cc(NC(=O)CCC(=O)N(Cc2ccco2)C2(C(=O)NC3CCCC3)CCC(C)CC2)no1 (stereo not given),,inconclusive: -0.233%
Cc1nnnn1/C(=C\c1ccccc1)C(=O)OCC(=O)NC(C)(C)C,"inconclusive: 20.6 µM [falling, partial curve, poor fit]",
COc1cc(/C=C2\SC(=O)N(CC(=O)Nc3cccc(C)c3)C2=O)cc([N+](=O)[O-])c1O,,inconclusive: -8.09%
CCN1CCN(Cc2nc3c(c(=O)n(C)c(=O)n3C)n2CCc2ccccc2)CC1,,inconclusive: 0.105%
COc1cc(C2NC(=O)C(C#N)=C(S)N2c2ccccc2)ccc1OC(C)C (stereo not given),"inconclusive: 18.4 µM [falling, single point]",
Cc1cc(C)c(CN2CCN(C(=O)Cn3cnc4c(NCc5ccccc5)ncnc43)CC2)c(C)c1,,inconclusive: -17.9%
C[C@@H]1CCCCCCCCC(=O)OCCN1C(=O)OC(C)(C)C,,inactive: 3.63%
CCN(Cc1ccncc1)C(=O)C1CCN(S(=O)(=O)c2cccs2)CC1,"inconclusive: 29.1 µM [rising, single point]",
CC(=O)Nc1ccc(NC(=O)C(C)Oc2ccc(Cl)cc2Cl)cc1 (stereo not given),,inactive: -13.7%
CCOc1ccc(NC(=S)N=Nc2c(O)[nH]c3ccccc23)cc1,"inconclusive: 3.16 µM [falling, full curve, poor fit]",
